# Reference: PubChem BioAssay AID1259274 (Sanger Institute, 2017)
# Purpose: 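Kinases RKO cells need to grow, alone or with anchor drugs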 (primary screen)
# System: human RKO colorectal cancer cells
# Reagent: siRNA pool against human genes
# Treatment: anchor drugs BYL719 at 1 µM, cetuximab at 5 µg/ml or trametinib at 10 nM; DMSO vehicle as the no-drug arm
# Measurement: 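Viability of cells versus control pool 2 (non-targeting) averaged across replicates; knock-down-only robust z-score; for every anchor drug (BYL719, cetuximab, trametinib) a synergy score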
# Scale: viability z-score, siRNA alone: higher = more viable cells; low values mean essential gene; viability, siRNA alone, vehicle: higher = more viable cells; synergy score with BYL719 and synergy score with Trametinib and synergy score with Cetuximab: higher = stronger combined killing with the drug
# Rule for the call: 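a single knock-down scoring under -3 on the robust z-score, meaning fewer cells, counts as essential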
# Calls: active = essential when knocked down alone; inactive = no change alone
# Shown is an unselected part of 794 deposited reagents. 11 of all reagents (1.4%) were called active. 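Calls rest on knock-down without drug only; synergy scores with anchor drugs were not used for the essential call.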 Viability is capped at 1. Not stated in the record: the amount of reagent, the time to read-out.
gene,"viability z-score, siRNA alone","viability, siRNA alone, vehicle (fraction of control)",synergy score with BYL719,synergy score with Trametinib,synergy score with Cetuximab,activity call
LIMK1 (GeneID 3984),1.19,1,-0.0054,-0.181,0.000628,inactive
PRKACG (GeneID 5568),-0.139,0.886,-0.25,-0.254,-0.0822,inactive
CDKN1B (GeneID 1027),0.131,0.909,-0.0944,-0.182,-0.0908,inactive
MAPK7 (GeneID 5598),0.806,0.967,0.11,-0.128,0.117,inactive
SRP72 (GeneID 6731),-0.765,0.832,-0.138,-0.152,-0.166,inactive
NUAK1 (GeneID 9891),-0.902,0.821,-0.0472,-0.177,-0.0152,inactive
DCLK2 (GeneID 166614),0.969,0.981,-0.0626,0.00356,0.151,inactive
TAOK2 (GeneID 9344),0.91,0.976,-0.0393,-0.171,-0.0241,inactive
MATK (GeneID 4145),0.0828,0.905,-0.0523,-0.178,-0.0892,inactive
TTK (GeneID 7272),-3.19,0.625,-0.107,-0.0289,-0.0481,active
PDPK1 (GeneID 5170),-2.65,0.671,-0.00594,-0.182,-0.189,inactive
MAP3K20 (GeneID 51776),0.512,0.942,-0.124,-0.216,-0.039,inactive
DYRK3 (GeneID 8444),1.13,0.995,0.0513,-0.226,0.0387,inactive
ITSN1 (GeneID 6453),0.296,0.923,-0.0277,-0.191,-0.0767,inactive
CERK (GeneID 64781),0.0782,0.905,0.0398,-0.0432,-0.0397,inactive
PIP5K1B (GeneID 8395),-2.25,0.705,0.0158,-0.0309,-0.148,inactive
PRKG2 (GeneID 5593),1.19,1,-0.0112,-0.0334,0,inactive
TNNI3K (GeneID 51086),0.998,0.983,-0.00696,-0.0444,-0.0165,inactive
CKS2 (GeneID 1164),0.257,0.92,-0.0433,-0.291,-0.08,inactive
STK32A (GeneID 202374),0.817,0.968,-0.183,-0.125,-0.032,inactive

Reagents listed so far called active:
gene,"viability z-score, siRNA alone","viability, siRNA alone, vehicle (fraction of control)",synergy score with BYL719,synergy score with Trametinib,synergy score with Cetuximab,activity call
TTK (GeneID 7272),-3.19,0.625,-0.107,-0.0289,-0.0481,active
